Results deposited as PubChem BioAssay AID1259405 (NCATS, 2018)

Test: 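Knock-downs that lift recombinant protein yield in hamster ovary cells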 (primary screen)
System: Chinese hamster CHO-K1 ovary cells with stable secreted eGFP expression
Reagents: single siRNA against mouse genes, 0.8 pmol siRNA per well (2 µl of 400 nM stock)
Timing: 3 days
Read-out: 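Per-well intracellular GFP measured by laser scanning cytometry, plus viability from ATP luminescence, each relative to plate median of non-targeting control wells, in %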
Reading the numbers: GFP, % of control: higher = more GFP per well, higher productivity; viability (ATP), % of control: higher = more viable cells (more ATP)
Call rule: 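Called active when intracellular GFP, relative to negative control, is at or above 120%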
This is one part, drawn at random, of about 50,000 deposited reagents. Over the whole deposit, about 4,000 (8%) got an active call. 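Mouse siRNA library applied to hamster cells; one well for each siRNA.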 Unmarked entries are inactive. The numbers tell different reagents against one gene apart.

Knock-down of Ifi204 (interferon activated gene 204) #1 came out at: GFP, % of control 115; viability (ATP), % of control 81.1.
Depletion of Ifi204 (interferon activated gene 204) #2 came out at: GFP, % of control 78.5; viability (ATP), % of control 80.
Ifi204 (interferon activated gene 204) #3 gave GFP, % of control 74.3; viability (ATP), % of control 101.
After knock-down of A730036I17Rik (RIKEN cDNA A730036I17 gene) #1, the record shows GFP, % of control 34.8; viability (ATP), % of control 64.8.
Against A730036I17Rik (RIKEN cDNA A730036I17 gene) #2, the entry reads GFP, % of control 29.7; viability (ATP), % of control 36.4.
Against A730036I17Rik (RIKEN cDNA A730036I17 gene) #3, the entry reads GFP, % of control 76.3; viability (ATP), % of control 87.5.
Against Slc71a2 #1, the values are GFP, % of control 38.4; viability (ATP), % of control 35.8.
For Slc71a2 #2 the deposit lists GFP, % of control 75.8; viability (ATP), % of control 63.5.
After knock-down of Slc71a2 #3, the record shows GFP, % of control 62.2; viability (ATP), % of control 88.2.
For Gsdme (gasdermin E) #1, the values are GFP, % of control 40.7; viability (ATP), % of control 90.1.
With knock-down of Gsdme (gasdermin E) #2, the screen gave GFP, % of control 73.2; viability (ATP), % of control 93.6.
Gsdme (gasdermin E) #3 showed GFP, % of control 25.2; viability (ATP), % of control 35.3.
For Ddb1 (damage specific DNA binding protein 1) #1, the entry reads GFP, % of control 118; viability (ATP), % of control 77.6.
Depletion of Ddb1 (damage specific DNA binding protein 1) #2 came out at: GFP, % of control 87.3; viability (ATP), % of control 86.2.
After knock-down of Ddb1 (damage specific DNA binding protein 1) #3, the record shows GFP, % of control 44.3; viability (ATP), % of control 53.6.
Silencing of Dennd2a (DENN domain containing 2A) #1 gave: GFP, % of control 53.4; viability (ATP), % of control 57.7.
Dennd2a (DENN domain containing 2A) #2 scored GFP, % of control 76; viability (ATP), % of control 82.
For Dennd2a (DENN domain containing 2A) #3, the entry reads GFP, % of control 96.3; viability (ATP), % of control 71.1.
For Commd8 (COMM domain containing 8) #1, the values are GFP, % of control 83.1; viability (ATP), % of control 93.6.
Commd8 (COMM domain containing 8) #2 showed GFP, % of control 92.3; viability (ATP), % of control 35.9.
Commd8 (COMM domain containing 8) #3 gave GFP, % of control 92.7; viability (ATP), % of control 113.
Depletion of Fbxw14 (F-box and WD-40 domain protein 14) #1 resulted in: GFP, % of control 83.1; viability (ATP), % of control 66.8.
Fbxw14 (F-box and WD-40 domain protein 14) #2 gave GFP, % of control 160 (active); viability (ATP), % of control 120.
Fbxw14 (F-box and WD-40 domain protein 14) #3 gave GFP, % of control 97; viability (ATP), % of control 62.2.
Zfp114 (zinc finger protein 114) #1 gave GFP, % of control 90.4; viability (ATP), % of control 87.2.
Zfp114 (zinc finger protein 114) #2 gave GFP, % of control 68.5; viability (ATP), % of control 74.6.
Zfp114 (zinc finger protein 114) #3 showed GFP, % of control 51.6; viability (ATP), % of control 54.5.
